The source of these data is US20230090247A1, “MOLECULES TARGETING RAS PROTEIN” (AELIN THERAPEUTICS, priority 2020, published 2023).

Experiment [1] deals with mCherry-tagged KRAS G12V (human) (UniProt P01116). The experiment is described as follows: confocal fluorescence co-localisation in HeLa cells overexpressing mCherry-tagged KRAS G12V.
Experiment [2] shares this target. The experiment is described as follows: confocal fluorescence co-localisation in HeLa cells overexpressing mCherry-tagged KRAS G12V (FIG. 7).

No constants are given. Whether binding was seen depends on the method and setting. Some entries that bind do so weakly or less than the wild type.

In the case of KVVVGAVGKGSKVVVGAVGK (FITC label; position not stated) [04-015-N032, FITC-labelled version of pept-in 04-015-N001], the binding entry in experiment [1] and in experiment [2] was “binds” throughout.
